Results are given in words; binding and its absence hold for the method and conditions named. For some of these results: In cells and extracts the contact can be indirect. Some results given as binding are weak or reduced against the parent protein; the word gives no strength. Tags and fused reporters may be left off the sequences shown.
How the values were obtained:
[1] = target: human islet amyloid polypeptide, full length (fl-hIAPP) (human); assay: pull-down with IAPP fibrils, Western blot
[2] = target: T1, amyloid fragment of transthyretin (TTR11); assay: ELISA, immobilized peptide
T1 sequence (peptide): YTIAALLSPYS

[3] = target: T2, fibrin peptide 85 (FP13), human fibrin α-chain fragment α148-160 (human); assay: ELISA, immobilized peptide
T2 sequence (peptide): KRLEVDIDIKIRS

[4] = target: human amyloid-β peptide Aβ(1-40) (human); assay: ELISA, immobilized peptide
[5] = target: T3, laminin α1-chain(2097-2108) amyloid core peptide (LAM12); assay: ELISA, immobilized peptide
T3 sequence (peptide): AASIKVAVSADR

[6] = target: human amyloid-β peptide Aβ(1-40) (human); assay: pull-down with Aβ fibrils, Western blot

Measured: binding

B1: tPA-F-GST (finger domain of human tPA with C-terminal GST tag) (peptide, UniProt P00750 36-85, looked up, not shown: a dimerising Fc or GST)
chain: SYQVICRDEKTQMIYQQHQSWLRPVLRSNRVEYCWCNSGRAQCHSVPVKS
binds: [1]

B2: FXII F-GST (finger domain of human factor XII with C-terminal GST tag) (peptide, not shown: small tags and cut ends; a dimerising Fc or GST)
chain: GAEKCFEPQLLRFFHKNEIWYRTEQAAVARCQCKGPDAHCQRL
binds: all assays above

From patent publication US20090202980A1
